In patent US20250188184A1 one finds binding data, which are given here for one molecule.

Experiment [1] has as its target CD3 complex on HEK293T cells (membrane protein array). Kind of experiment: immunofluorescence FACS on HEK293T cells expressing membrane proteins.
In experiment [2] the target is CD3 epsilon on HEK293T cells (membrane protein array) (Homo sapiens (Human)). Described as above.

No constants are given. Whether binding was seen depends on the method and setting. A result given as binding can be weak or reduced; the word gives no strength.

B1: AMX-500-P7 (AC3934) (bispecific antibody)
chain: ASSATPESGPGTSTEPSEGSAPGTSESATPESGPGSGPGTSESATPGTSESATPESGPGSEPATSGSETPGTSESATPESGPGTSTEPSEGSAPGSPAGSPTSTEEGTSESATPESGPGSEPATSGSETPGTSESATPESGPGSPAGSPTSTEEGSPAGSPTSTEEGTSTEPSEGSAPGTSESATPESGPGTSESATPESGPGTSESATPESGPGSEPATSGSETPGSEPATSGSETPGSPAGSPTSTEEGTSTEPSEGSAPGTSTEPSEGSAPGSEPATSGSETPGTSESATPEAGRSASHTPAGLTGPGTSESATPESQVQLVESGGGVVQPGRSLRLSCAASGRTFGIYVWGWVRQAPGKEREFVGAISWSGSNRKVSDSVKGRFTISRDNSKNTLYLQMNSLRAEDTAVYYCAASNKLYGRTWYDFNESDYWGQGTQVTVSSGGGGSGGGSELVVTQEPSLTVSPGGTVTLTCRSSNGAVTSSNYANWVQQKPGQAPRGLIGGTNKRAPGTPARFSGSLLGGKAALTLSGVQPEDEAVYYCALWYPNLWVFGGGTKLTVLSESATPESGPGTSPGATPESGPGTSESATPEVQLVESGGGIVQPGGSLRLSCAASGFTFSTYAMNWVRQAPGKGLEWVGRIRTKRNNYATYYADSVKGRFTISRDDSKNTVYLQMNSLKTEDTAVYYCVRHENFGNSYVSWFAHWGQGTLVTVSSGTATPESGPGEAGRSASHTPAGLTGPATPESGPGTSESATPESGPGSPAGSPTSTEEGTSESATPESGPGSEPATSGSETPGTSESATPESGPGTSTEPSEGSAPGTSTEPSEGSAPGTSTEPSEGSAPGTSTEPSEGSAPGTSTEPSEGSAPGTSTEPSEGSAPGSPAGSPTSTEEGTSTEPSEGSAPGTSESATPESGPGSEPATSGSETPGTSESATPESGPGSEPATSGSETPGTSESATPESGPGTSTEPSEGSAPGTSESATPESGPGSPAGSPTSTEEGSPAGSPTSTEEGSPAGSPTSTEEGTSESATPESGPGTSTEPSEGSAPGTSESATPESGPGSEPATSGSETPGTSESATPESGPGSEPATSGSETPGTSESATPESGPGTSTEPSEGSAPGSPAGSPTSTEEGTSESATPESGPGSEPATSGSETPGTSESATPESGPGSPAGSPTSTEEGSPAGSPTSTEEGTSTEPSEGSAPGTSESATPESGPGTSESATPESGPGTSPSATPESGPGSEPATSGSETPGSEPATSGSETPGSPAGSPTSTEEGTSTEPSEGSAPGTSTEPSEGSAPGSEPATSGSETPGTSESAGEPEA
For the molecule B1, the binding entry in experiment [1] and in experiment [2] was “binds” each time.
